From the supplement of paper PMC12819154, “High-throughput peptide-centric local stability assay extends protein–ligand identification to membrane proteins, tissues and bacteria” (Nature Structural & Molecular Biology, 2025)
The list shows a part of the results. Most entries show no effect beyond the scatter of the controls.

Amino acid sequences for entries named in this document (tags omitted). A change or cut given only in a name is not applied to a line headed by its entry.
UniProt Q27J81, whole entry: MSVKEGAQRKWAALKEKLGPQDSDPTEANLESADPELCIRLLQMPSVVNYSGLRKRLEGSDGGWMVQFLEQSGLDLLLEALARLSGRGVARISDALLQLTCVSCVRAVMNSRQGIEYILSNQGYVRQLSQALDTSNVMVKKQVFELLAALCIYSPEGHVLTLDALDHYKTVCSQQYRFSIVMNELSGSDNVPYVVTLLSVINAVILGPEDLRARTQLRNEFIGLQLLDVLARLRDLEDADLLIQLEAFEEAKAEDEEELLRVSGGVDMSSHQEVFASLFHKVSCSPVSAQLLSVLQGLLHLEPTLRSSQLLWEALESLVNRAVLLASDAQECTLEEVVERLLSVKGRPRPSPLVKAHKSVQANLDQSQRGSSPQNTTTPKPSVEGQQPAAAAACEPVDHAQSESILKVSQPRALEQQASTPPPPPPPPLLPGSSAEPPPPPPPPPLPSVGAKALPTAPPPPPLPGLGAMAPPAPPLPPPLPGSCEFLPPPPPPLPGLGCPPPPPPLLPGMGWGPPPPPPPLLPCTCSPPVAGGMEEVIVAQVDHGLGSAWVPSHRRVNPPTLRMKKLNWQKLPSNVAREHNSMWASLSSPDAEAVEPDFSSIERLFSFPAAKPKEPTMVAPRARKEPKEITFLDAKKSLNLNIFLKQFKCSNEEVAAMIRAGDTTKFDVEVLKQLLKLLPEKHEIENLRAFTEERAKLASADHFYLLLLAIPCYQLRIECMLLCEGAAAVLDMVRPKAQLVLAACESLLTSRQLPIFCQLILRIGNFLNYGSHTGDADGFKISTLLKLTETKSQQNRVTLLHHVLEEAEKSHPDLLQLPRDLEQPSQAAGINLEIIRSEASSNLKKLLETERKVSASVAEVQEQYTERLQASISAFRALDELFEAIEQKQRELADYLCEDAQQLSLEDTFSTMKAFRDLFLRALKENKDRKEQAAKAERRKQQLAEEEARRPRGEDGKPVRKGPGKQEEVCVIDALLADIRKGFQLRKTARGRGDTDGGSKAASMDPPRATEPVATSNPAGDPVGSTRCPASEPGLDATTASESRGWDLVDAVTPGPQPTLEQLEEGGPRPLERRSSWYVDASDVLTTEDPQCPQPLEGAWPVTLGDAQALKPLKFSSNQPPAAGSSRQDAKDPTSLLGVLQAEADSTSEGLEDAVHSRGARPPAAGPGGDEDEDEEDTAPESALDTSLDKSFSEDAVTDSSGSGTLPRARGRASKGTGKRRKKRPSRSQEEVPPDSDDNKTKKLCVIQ
UniProt Q16864, whole entry: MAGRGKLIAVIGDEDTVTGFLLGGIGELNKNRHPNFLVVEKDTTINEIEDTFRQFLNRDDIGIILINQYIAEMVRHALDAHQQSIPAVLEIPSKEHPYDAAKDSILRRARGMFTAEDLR
UniProt Q16401: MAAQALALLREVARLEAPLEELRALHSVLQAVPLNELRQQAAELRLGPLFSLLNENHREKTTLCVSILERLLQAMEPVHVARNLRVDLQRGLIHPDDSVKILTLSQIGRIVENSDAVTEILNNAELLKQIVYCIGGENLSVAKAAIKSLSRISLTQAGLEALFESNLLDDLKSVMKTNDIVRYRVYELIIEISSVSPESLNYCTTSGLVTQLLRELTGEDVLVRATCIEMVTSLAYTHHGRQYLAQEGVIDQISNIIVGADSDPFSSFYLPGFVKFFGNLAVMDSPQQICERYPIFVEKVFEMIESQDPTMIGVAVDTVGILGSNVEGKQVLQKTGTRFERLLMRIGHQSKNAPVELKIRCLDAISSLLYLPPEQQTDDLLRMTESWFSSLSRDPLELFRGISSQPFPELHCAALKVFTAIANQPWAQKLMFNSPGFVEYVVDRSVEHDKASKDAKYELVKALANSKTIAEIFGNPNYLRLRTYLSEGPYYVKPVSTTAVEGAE
UniProt Q3MHD2: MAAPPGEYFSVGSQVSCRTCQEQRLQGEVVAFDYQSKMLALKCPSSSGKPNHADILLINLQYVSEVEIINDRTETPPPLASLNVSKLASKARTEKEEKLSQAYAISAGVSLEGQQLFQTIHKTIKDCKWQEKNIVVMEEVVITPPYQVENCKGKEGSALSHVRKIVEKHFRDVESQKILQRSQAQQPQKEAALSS
UniProt Q16342: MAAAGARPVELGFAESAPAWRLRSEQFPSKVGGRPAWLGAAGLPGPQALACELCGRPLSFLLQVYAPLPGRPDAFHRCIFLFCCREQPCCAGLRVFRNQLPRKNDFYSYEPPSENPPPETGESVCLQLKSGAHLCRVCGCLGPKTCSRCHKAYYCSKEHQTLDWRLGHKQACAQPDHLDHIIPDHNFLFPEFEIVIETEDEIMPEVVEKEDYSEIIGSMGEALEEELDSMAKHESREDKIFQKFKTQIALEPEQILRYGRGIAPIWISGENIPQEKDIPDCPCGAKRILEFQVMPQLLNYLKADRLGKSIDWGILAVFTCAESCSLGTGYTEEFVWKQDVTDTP
UniProt Q496Y0: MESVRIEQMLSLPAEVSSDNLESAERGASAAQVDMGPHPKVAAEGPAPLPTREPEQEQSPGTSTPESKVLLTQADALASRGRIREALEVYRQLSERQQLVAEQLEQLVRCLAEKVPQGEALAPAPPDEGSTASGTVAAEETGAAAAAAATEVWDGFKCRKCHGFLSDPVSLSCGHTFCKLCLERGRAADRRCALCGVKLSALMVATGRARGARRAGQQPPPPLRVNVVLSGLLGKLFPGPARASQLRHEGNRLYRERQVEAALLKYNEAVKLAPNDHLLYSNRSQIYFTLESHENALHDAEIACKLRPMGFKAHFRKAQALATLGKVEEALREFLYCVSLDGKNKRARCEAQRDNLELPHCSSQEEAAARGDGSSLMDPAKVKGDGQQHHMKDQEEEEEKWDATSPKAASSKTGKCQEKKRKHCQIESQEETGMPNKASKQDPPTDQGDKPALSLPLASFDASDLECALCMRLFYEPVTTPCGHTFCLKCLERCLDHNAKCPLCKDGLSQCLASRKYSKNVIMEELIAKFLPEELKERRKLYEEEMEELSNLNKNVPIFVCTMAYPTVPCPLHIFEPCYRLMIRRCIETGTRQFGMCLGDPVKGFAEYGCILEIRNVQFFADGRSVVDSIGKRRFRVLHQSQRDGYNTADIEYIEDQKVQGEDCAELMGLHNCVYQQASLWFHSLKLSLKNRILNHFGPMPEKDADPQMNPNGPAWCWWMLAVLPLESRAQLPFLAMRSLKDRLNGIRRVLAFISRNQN
UniProt Q2TBE0: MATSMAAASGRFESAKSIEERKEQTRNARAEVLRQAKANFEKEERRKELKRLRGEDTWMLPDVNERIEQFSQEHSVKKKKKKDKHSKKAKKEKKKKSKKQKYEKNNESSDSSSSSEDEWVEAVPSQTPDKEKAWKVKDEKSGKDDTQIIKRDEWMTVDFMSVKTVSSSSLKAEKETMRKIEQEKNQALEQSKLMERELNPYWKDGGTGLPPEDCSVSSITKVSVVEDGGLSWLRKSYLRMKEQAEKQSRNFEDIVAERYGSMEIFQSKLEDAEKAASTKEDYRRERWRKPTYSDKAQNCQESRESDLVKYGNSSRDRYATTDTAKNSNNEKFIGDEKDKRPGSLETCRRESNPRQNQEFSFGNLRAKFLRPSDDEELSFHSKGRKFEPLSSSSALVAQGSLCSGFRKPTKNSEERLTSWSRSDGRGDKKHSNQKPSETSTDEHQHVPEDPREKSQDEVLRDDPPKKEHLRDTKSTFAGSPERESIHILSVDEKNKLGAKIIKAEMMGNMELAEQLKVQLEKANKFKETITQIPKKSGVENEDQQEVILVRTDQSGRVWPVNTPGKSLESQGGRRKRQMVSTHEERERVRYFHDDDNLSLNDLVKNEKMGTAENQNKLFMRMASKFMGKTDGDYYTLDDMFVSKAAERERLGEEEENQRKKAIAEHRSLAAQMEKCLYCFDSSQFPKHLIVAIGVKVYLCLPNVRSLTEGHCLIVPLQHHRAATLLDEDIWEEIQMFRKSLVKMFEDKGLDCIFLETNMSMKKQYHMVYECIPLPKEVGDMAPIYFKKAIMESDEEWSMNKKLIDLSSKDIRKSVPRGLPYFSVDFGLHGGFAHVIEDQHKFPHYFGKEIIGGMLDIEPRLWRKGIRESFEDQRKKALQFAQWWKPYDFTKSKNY
UniProt Q16875: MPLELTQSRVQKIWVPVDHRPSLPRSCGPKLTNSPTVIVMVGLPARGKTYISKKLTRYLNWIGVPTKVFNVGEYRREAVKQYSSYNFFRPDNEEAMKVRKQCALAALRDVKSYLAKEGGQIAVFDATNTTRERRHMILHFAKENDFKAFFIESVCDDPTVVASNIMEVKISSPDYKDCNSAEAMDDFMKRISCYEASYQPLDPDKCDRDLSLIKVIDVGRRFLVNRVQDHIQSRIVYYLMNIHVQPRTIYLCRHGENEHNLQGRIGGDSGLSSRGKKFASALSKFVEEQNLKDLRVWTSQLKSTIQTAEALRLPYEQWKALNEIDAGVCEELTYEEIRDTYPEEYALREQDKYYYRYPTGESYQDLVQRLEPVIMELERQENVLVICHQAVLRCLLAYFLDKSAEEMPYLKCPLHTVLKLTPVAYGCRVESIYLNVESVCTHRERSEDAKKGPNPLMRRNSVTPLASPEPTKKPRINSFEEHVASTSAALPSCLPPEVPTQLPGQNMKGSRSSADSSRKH
UniProt Q3ZCT1: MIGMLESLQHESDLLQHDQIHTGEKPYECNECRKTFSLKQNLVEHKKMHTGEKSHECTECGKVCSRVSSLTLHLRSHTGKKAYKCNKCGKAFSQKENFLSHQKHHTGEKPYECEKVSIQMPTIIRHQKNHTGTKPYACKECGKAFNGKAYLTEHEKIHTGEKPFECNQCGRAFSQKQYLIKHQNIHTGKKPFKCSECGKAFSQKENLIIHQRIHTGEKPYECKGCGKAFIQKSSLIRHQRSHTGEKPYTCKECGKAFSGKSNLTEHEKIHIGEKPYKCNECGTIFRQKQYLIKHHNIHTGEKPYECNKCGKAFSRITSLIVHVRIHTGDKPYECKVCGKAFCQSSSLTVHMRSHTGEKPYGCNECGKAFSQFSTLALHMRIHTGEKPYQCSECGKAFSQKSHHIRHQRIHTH
UniProt Q15697: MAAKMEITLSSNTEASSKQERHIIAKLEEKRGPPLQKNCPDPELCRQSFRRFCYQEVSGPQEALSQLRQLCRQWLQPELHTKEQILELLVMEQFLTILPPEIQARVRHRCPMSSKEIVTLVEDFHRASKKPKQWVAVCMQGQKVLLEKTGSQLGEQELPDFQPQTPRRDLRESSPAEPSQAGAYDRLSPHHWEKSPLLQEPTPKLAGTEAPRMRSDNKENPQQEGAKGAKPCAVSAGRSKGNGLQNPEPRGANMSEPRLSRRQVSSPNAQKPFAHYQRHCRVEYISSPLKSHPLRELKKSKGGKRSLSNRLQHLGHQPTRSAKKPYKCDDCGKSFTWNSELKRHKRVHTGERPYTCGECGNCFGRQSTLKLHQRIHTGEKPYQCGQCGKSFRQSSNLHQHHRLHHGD
UniProt Q15723: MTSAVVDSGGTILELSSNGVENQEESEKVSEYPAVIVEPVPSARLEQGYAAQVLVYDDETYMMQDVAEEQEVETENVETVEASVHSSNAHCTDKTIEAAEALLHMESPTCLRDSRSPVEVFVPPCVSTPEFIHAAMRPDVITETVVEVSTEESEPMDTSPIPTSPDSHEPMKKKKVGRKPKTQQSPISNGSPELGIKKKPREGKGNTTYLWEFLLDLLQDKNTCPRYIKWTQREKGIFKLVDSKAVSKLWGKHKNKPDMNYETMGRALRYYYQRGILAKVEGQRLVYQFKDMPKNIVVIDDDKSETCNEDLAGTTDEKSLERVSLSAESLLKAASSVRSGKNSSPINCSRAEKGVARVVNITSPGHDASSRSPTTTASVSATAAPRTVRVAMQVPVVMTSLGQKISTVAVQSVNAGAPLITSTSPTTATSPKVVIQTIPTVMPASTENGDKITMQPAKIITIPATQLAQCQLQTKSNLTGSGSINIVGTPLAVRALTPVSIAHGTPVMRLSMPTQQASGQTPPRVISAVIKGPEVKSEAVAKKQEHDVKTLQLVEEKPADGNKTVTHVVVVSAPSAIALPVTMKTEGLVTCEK
UniProt Q15327: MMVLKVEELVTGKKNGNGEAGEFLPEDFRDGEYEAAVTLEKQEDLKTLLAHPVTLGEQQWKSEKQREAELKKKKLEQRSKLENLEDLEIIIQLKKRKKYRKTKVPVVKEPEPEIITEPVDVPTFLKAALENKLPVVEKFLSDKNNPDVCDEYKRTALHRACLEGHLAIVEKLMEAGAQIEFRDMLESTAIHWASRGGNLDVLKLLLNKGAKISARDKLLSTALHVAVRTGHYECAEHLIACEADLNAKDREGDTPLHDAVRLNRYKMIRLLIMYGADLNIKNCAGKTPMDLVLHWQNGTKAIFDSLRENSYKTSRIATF

compound: CN[C@@H]1C[C@H]2O[C@@](C)([C@@H]1OC)n1c3ccccc3c3c4c(c5c6ccccc6n2c5c31)C(=O)NC4 [staurosporine]; experiment: log2 fold change of tryptic peptide abundance, ligand vs vehicle (limited proteolysis) (log2 ratio); higher = more trypsin-susceptible (destabilized); conditions: ligand concentration: 20 uM; sample: K562 cleared lysate; digestion: 4 min, 22 C (HT-PELSA RT4min, Orbitrap Astral)

Target	log2 fold change
TRADD (peptide sequence: RFVQAEGR, peptide start residue: 271) (UniProt Q15628)	-0.713
SF3A2 (peptide sequence: EAPAQPAPEKVKVEVK, peptide start residue: 92) (UniProt Q15428)	-0.265
PLCL1 (peptide sequence: KMLTAYDLMIQESR, peptide start residue: 966) (UniProt Q15111)	0.802
INF2 (peptide sequence: VTLLHHVLEEAEKSHPDLLQLPR, peptide start residue: 798) (UniProt Q27J81)	-0.602
UniProt Q16659 (peptide sequence: ESEVNHYYEPK, peptide start residue: 461)	0.507
ATP6V1F (peptide sequence: HPNFLVVEKDTTINEIEDTFR, peptide start residue: 33) (UniProt Q16864)	0.39
UniProt Q15431 (peptide sequence: LQKEIDKR, peptide start residue: 695)	-0.0261
PSMD5 (peptide sequence: LGPLFSLLNENHR, peptide start residue: 46) (UniProt Q16401)	0.0819
UniProt Q3MHD2 (peptide sequence: EGSALSHVR, peptide start residue: 155)	0.32
UBE2S (peptide sequence: IFHPNVGANGEICVNVLKR, peptide start residue: 83) (UniProt Q16763)	-0.196
CCDC85B (peptide sequence: EDLGGCWQK, peptide start residue: 111) (UniProt Q15834)	0.267
UniProt Q2QGD7 (peptide sequence: CPVSTCNR, peptide start residue: 453)	-0.349
PDCD2 (peptide sequence: CIFLFCCR, peptide start residue: 78) (UniProt Q16342)	-0.11
UniProt Q496Y0 (peptide sequence: VLLTQADALASR, peptide start residue: 69)	-0.315
CWF19L2 (peptide sequence: DRYATTDTAK, peptide start residue: 316) (UniProt Q2TBE0)	-0.609
HAGH (peptide sequence: HVEPGNAAIR, peptide start residue: 233) (UniProt Q16775)	0.0986
PFKFB3 (peptide sequence: LPYEQWK, peptide start residue: 313) (UniProt Q16875)	0.435
UniProt Q3ZCT1 (peptide sequence: CNECGTIFR, peptide start residue: 278)	0.0639
ERCC6L (peptide sequence: AQFLVEFESQNK, peptide start residue: 704) (UniProt Q2NKX8)	-0.66
RHEB (peptide sequence: IILEAEKMDGAASQGK, peptide start residue: 163) (UniProt Q15382)	0.483
UniProt Q3KP31 (peptide sequence: ALSCSSSLR, peptide start residue: 196)	-0.541
DDB1 (peptide sequence: MQEVVANLQYDDGSGMK, peptide start residue: 1105) (UniProt Q16531)	-0.287
SHROOM1 (peptide sequence: SRAPAPGTAGR, peptide start residue: 201) (UniProt Q2M3G4)	0.579
ZNF146 (peptide sequence: AFSQFSTLALHLR, peptide start residue: 248) (UniProt Q15072)	0.331
DLGAP5 (peptide sequence: ILVELDETSQGLVPEK, peptide start residue: 59) (UniProt Q15398)	-0.395
UniProt Q15697 (peptide sequence: EIVTLVEDFHR, peptide start residue: 116)	-0.103
AP5B1 (peptide sequence: LLGTAQLTLLHAMLALK, peptide start residue: 315) (UniProt Q2VPB7)	0.235
ELF2 (peptide sequence: TEGLVTCEK, peptide start residue: 585) (UniProt Q15723)	-0.347
UniProt Q15327 (peptide sequence: QREAELK, peptide start residue: 65)	0.021

Some of the entries so far, with each value named:
ZNF146 (peptide sequence: AFSQFSTLALHLR, peptide start residue: 248) (UniProt Q15072)
  log2 fold change: 0.331
DLGAP5 (peptide sequence: ILVELDETSQGLVPEK, peptide start residue: 59) (UniProt Q15398)
  log2 fold change: -0.395
